Test results reported in article PMC12494420.
For at least one entry, the source does not settle the construct or the ends of the probe. For part of these data: The comparison behind a weaker result is the experiment's own reference, which may not be listed here.

Legend:
[1] = system: His-BnaC04.bZIP16 (Brassica napus); assay: EMSA; conditions: 10x and 50x unlabelled probe competes; EMSA kit (Thermo) binding buffer, preincubation 10 min at room temperature, 20 fmol biotin probe, 6% native PAGE in 0.5x TBE, 2.5% glycerol; salt and pH not stated; recombinant protein; protein details: His; label: biotin
[2] = system: His-BnaC04.bZIP16 phosphorylated by GST-BnaA06.SnRK2 (Brassica napus); assay: EMSA; conditions: after in vitro kinase assay with increasing GST-BnaA06.SnRK2, binding decreases; EMSA kit (Thermo) binding buffer, preincubation 10 min at room temperature, 20 fmol biotin probe, 6% native PAGE in 0.5x TBE, 2.5% glycerol; salt and pH not stated; recombinant protein; protein details: His; label: biotin

Sequence | binding result [1] | binding result [2]
CACCAACACGTGGATACTATTGCATGATGACGCCATTGACACATGACTCTC (double strand) [BnaA08.OLEOSIN1 promoter P1 probe] | binds | binds more weakly
TACAAACACGTGTCTACTATAATCGTAAATGAACACGTGGCATAC (double strand) [BnaC03.PDH-E1 BETA promoter P1 probe] | binds | 
